Assay results: publication PMC5945681
These are yes or no findings as the source states them, for the method shown. Binding seen in cells or lysates may run through a third protein. Some results given as binding are weak or reduced against the parent protein; the word gives no strength. For part of these data: Tags and fused reporters may be left off the sequences shown.

Legend:
HA-p53 = HA-p53 (UniProt P04637); assay: co-IP; HEK293T cells co-transfected with Flag-USP49 and HA-p53 (or its truncations); lysates immunoprecipitated with anti-Flag or anti-HA antibodies and protein G-agarose, 4 °C, 4 h; lysis buffer 50 mM Tris-HCl pH 7.4-7.5, 150 mM NaCl, 1 mM EDTA, 1% NP-40; immunoblot
GST-p53 = GST-p53 (UniProt P04637); assay: pull-down; GST-p53 (and GST) bound to Sepharose beads incubated with whole-cell lysate of HCT116 cells stably expressing Flag-USP49, 1 ml RIPA buffer, 4 °C, 4 h; immunoblot; only the target purified
[1] = biological target: endogenous p53 (human (endogenous in HCT116 and U2OS)) (UniProt P04637); assay: co-IP; endogenous proteins; HCT116 (text: also U2OS) lysates immunoprecipitated with an anti-p53 antibody, normal IgG as negative control; cells treated with 50 μM Eto for 4 h; immunoblot with USP49- and p53-specific antibodies

B1: Flag-USP49 (enzyme, UniProt Q70CQ1 1-688)
chain: MDRCKHVGRLRLAQDHSILNPQKWCCLECATTESVWACLKCSHVACGRYIEDHALKHFEETGHPLAMEVRDLYVFCYLCKDYVLNDNPEGDLKLLRSSLLAVRGQKQDTPVRRGRTLRSMASGEDVVLPQRAPQGQPQMLTALWYRRQRLLARTLRLWFEKSSRGQAKLEQRRQEEALERKKEEARRRRREVKRRLLEELASTPPRKSARLLLHTPRDAGPAASRPAALPTSRRVPAATLKLRRQPAMAPGVTGLRNLGNTCYMNSILQVLSHLQKFRECFLNLDPSKTEHLFPKATNGKTQLSGKPTNSSATELSLRNDRAEACEREGFCWNGRASISRSLELIQNKEPSSKHISLCRELHTLFRVMWSGKWALVSPFAMLHSVWSLIPAFRGYDQQDAQEFLCELLHKVQQELESEGTTRRILIPFSQRKLTKQVLKVVNTIFHGQLLSQVTCISCNYKSNTIEPFWDLSLEFPERYHCIEKGFVPLNQTECLLTEMLAKFTETEALEGRIYACDQCNSKRRKSNPKPLVLSEARKQLMIYRLPQVLRLHLKRFRWSGRNHREKIGVHVVFDQVLTMEPYCCRDMLSSLDKETFAYDLSAVVMHHGKGFGSGHYTAYCYNTEGGFWVHCNDSKLNVCSVEEVCKTQAYILFYTQRTVQGNARISETHLQAQVQSSNNDEGRPQTFS
binding (HA-p53): binds

B2: Flag-USP49 (stably expressed in HCT116 cells) (enzyme, UniProt Q70CQ1 1-688)
chain: B1 chain
binding (GST-p53): binds

B3: endogenous USP49 (enzyme, UniProt Q70CQ1 1-688)
chain: B1 chain
binding [1]: binds
